Experimental data taken from patent US20150259430A1 (MAB DISCOVERY, published 2015).
No constants are given. Whether binding was seen depends on the method and setting. One block for each binder: values may come before it.

Biological target: recombinant Fc chimeric conjugate of human IL12 Rβ1 (human) (UniProt P42701)
Assay: ELISA, coated antigen

binding: no binding (tested: OD 0.1 or lower)
B1: Antibody 18 (antibody, V domains shown)
VH: QSVEESGGRLVTPGTPLTLTCTVSGFSLSTYWMSWVRQAPGKGLEYIGFINTGGNAYYASWAKGRFTISKTSTSVDLKITSPTTEDTATYFCAGAYVGDVGDGYALTLWGQGTLVTVSS
VL: DVVMTQTPASVSEPVGGTVTIKCQASQSIGNKLAWYQQVPGQPPKLLIYSASPLASGVSSRFKGSRSGTEYTLTISDLECADAATYYCQCTYYGSSGNAFGGGTEVVVK
notes: rabbit IgG in B-cell supernatant

binding: no binding (tested: OD 0.1 or lower)
B2: Antibody 21 (antibody, V domains shown)
VH: QEHLEESGGGLVKPPGSLTLTCTASGFSFSSTYYICWVRQAPGKGLEWIGCIYAGSGTTYYASWAKGRFTISKTSSTTVTLQMASLTAADTATYFCARSSDSWTYGMDLWGPGTLVTVSS
VL: DIVMTQTPASVSEPVGGTVTIKCQASQSISSYLAWYQQKPGQPPKRLIYKASTLASGVPSRFKGSGSGTDFTLTISDLECADAATYYCQCTYGNTGSNFFYGFGGGTEVVVK
notes: as for B1

binding: no binding (tested: OD 0.1 or lower)
B3: Antibody 20 (antibody, V domains shown)
VH: QSLEESGGGLVQPEGSLTLTCTASGLDASSNCWVCWVRQAPGKGLEWIACIYAIGSGVTYYASWVNGRFSISKTSSTTVTLQMTSLTVADTATYLCARVLNGVGYIDLWGPGTLVTVSS
VL: DIVMTQTPSSVEAAVGGTVTIKCQASQSVYNNNWLAWYQQIPGQPPKLLIYESSTLASGVPSRFKGSGSGTQFTLTISDVQCDDAAMYYCQTYYYSSSRTYAFGGGTEVVVK
notes: as for B1

binding: no binding (tested: OD 0.1 or lower)
B4: Antibody 45 (antibody, V domains shown)
VH: QSVEESGGRLVTPGTPLTLTCTVSGFSLSSYAMTWVRQAPGKGLEWIGIIDHSRATYYANWAKGRFTISKTSSTTVDLKVTSLTTEDTATYFCARFFNPGGSGYLRLWGQGTLVTVSS
VL: DVVMTQTPASVSEPVGGTVTIKCQASQIISNWLAWYQQKPGQPPKLLIYGASILASGVPSRFKASRSGTDYTLTIGDLECADAATYYCQCPDYSDTSLGSFGGGTEVVVR
notes: as for B1

binding: no binding (tested: OD 0.1 or lower)
B5: Antibody 9 (antibody, V domains shown)
VH: QEQLEESGEGLVKPGTPLTLTCTASGFSLSSGDMSWVRQAPGKGLEWIGTIGVDGSTDYANWAEGRFTISRTSTTVDLKMTSPTTEDTATYFCARGLFDDYTFNLWGQGTLVTVSS
VL: AYDMTQTPASVEVAVGGTVTIKCQASQNIYTYLSWYQQKPGQPPKLLIYKTSTLASGVPSRFSGSGSGTEYTLTVSGVQCDDAATYYCQQGYTTSSNVATPFGGGTEVVVK
notes: as for B1

binding: no binding (tested: OD 0.1 or lower)
B6: Antibody 6 (antibody, V domains shown)
VH: QSVEESGGRLVTPGTPLTLTCTVSGFSLSSYTMGWVRQAPGKGLEYIGIINTGGYTYYASWAKGRFTISRTSTTVDLSMTSLTTEDTATYFCARVYPGSSCDLWGQGTLVTVSS
VL: DVVMTQTPASVSEPVGGTVTIKCQASQSISSSYLSWYQQKPGQPPKLLIYRASTLESGVPSRFKGSGSGTEFTLTISDLECADAATYYCQCTDYAGSYVGGAFGGGTEVVVK
notes: as for B1

binding: no binding (tested: OD 0.1 or lower)
B7: Antibody 34 (antibody, V domains shown)
VH: QEQLVESGGGLVQPEGSLTLTCKASGFSFSSGYYMCWVRQAPGKGLEWIACIYADSSESTYYASWAKGRFTISKTSSTTVTLQVTSLTAADTATYFCARWGTVAGYSTFNLWGPGTLVTVSS
VL: DVVMTQTPASVSEPVGGTVTIKCQASQSISTALAWYQQKPGQPPKLLIYFTSTLASGVSSRFKGSGSGAEFTLTISDLECADAATYYCQGYYYVTNFPFGGGTEVVVK
notes: as for B1

binding: no binding (tested: OD 0.1 or lower)
B8: Antibody 15 (antibody, V domains shown)
VH: QSVEESGGRLVTPGTPLTLTCTVSGFSLNSHAMSWVRQAPGKGLEWIGIISSSGSAWYATWVKGRFTISKTSTTVDLKMTSLTTEDTATYFCARDSAMVPSNFNLWGQGTLVTVSS
VL: AIEMTQSPPSLSASVGETVRIRCLASEFLFNAVSWYQQKPGKPPTLLISGASNLESGVPPRFSGSGSGTDYTLTIGGVQAEDVATYYCLGDFSGGADLTFGAGTKVEIK
notes: as for B1
